Assay results published in the supplement of paper PMC4604168 (melanoma cell lines).
This is one part of the list. Single values are uncertain, as repeats are few or missing.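 Imaging used 1,536-well plates; nuclei positive for cleaved PARP by antibody were divided by total DNA-stained nuclei to yield the apoptosis fraction. Doses for screening kept most cells viable, and cell lines differ markedly in resting and induced cleaved-PARP levels.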

System: IST-MEL1
Assay: cleaved PARP positive nuclei fraction relative to DMSO control; melanoma cells; higher = more apoptosis
Conditions: library dose: low library concentration; 72 h

Point of comparison: CC[C@]1(O)C[C@H]2CN(CCc3c([nH]c4ccccc34)[C@@](C(=O)OC)(c3cc4c(cc3OC)N(C=O)[C@H]3[C@@](O)(C(=O)OC)[C@H](OC(C)=O)[C@]5(CC)C=CCN6CC[C@]43[C@@H]65)C2)C1 [vincristine] + COCC[n+]1c2c(n(Cc3cnccn3)c1C)C(=O)c1ccccc1C2=O [YM155] (first compound 0.0001 µM, partner dose 0.0004 µM), “cleaved PARP positive nuclei fraction” value 69.5%. Against it:
- Cc1cn(-c2cc(NC(=O)c3ccc(C)c(Nc4nccc(-c5cccnc5)n4)c3)cc(C(F)(F)F)c2)cn1 [nilotinib] + CN(c1ncccc1CNc1nc(Nc2ccc3c(c2)CC(=O)N3)ncc1C(F)(F)F)S(C)(=O)=O [PF562271] (first compound 0.2 µM, partner dose 0.08 µM) — higher, 130%
- Cc1cn(-c2cc(NC(=O)c3ccc(C)c(Nc4nccc(-c5cccnc5)n4)c3)cc(C(F)(F)F)c2)cn1 [nilotinib] + O=C(O)[C@@H]1[O][Sb](=[O])([O][Sb]2(=[O])[O][C@H]([C@H](O)CO)[C@H](O)[C@H](C(=O)O)[O]2)[O][C@H]([C@H](O)CO)[C@@H]1O [stibogluconate] (first compound 0.2 µM, partner dose 2 µM) — higher, 119%
- COc1cc([C@@H]2c3cc4c(cc3[C@@H](O[C@@H]3O[C@@H]5CO[C@@H](C)O[C@H]5[C@H](O)[C@H]3O)[C@H]3COC(=O)[C@H]23)OCO4)cc(OC)c1O [etoposide] + CCCCCCCCCCCCCCCCCCOP(=O)([O-])OC1CC[N+](C)(C)CC1 [Perifosine] (first compound 0.02 µM, partner dose 0.4 µM) — higher, 132%
